# Experimental data as given in the supplement of paper PMC6411743.
# The chains behind the UniProt entries cited, without tags or fusion partners. Where a name states a change or a piece, a line headed by the entry shows the natural chain unless it says otherwise.
# UniProt Q9Y3C0: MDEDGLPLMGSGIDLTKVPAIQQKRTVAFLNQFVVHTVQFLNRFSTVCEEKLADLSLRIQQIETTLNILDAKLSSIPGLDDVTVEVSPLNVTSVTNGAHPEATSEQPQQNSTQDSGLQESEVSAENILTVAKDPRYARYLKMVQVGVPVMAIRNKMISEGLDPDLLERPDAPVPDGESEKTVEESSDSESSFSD
# UniProt Q9C0E2: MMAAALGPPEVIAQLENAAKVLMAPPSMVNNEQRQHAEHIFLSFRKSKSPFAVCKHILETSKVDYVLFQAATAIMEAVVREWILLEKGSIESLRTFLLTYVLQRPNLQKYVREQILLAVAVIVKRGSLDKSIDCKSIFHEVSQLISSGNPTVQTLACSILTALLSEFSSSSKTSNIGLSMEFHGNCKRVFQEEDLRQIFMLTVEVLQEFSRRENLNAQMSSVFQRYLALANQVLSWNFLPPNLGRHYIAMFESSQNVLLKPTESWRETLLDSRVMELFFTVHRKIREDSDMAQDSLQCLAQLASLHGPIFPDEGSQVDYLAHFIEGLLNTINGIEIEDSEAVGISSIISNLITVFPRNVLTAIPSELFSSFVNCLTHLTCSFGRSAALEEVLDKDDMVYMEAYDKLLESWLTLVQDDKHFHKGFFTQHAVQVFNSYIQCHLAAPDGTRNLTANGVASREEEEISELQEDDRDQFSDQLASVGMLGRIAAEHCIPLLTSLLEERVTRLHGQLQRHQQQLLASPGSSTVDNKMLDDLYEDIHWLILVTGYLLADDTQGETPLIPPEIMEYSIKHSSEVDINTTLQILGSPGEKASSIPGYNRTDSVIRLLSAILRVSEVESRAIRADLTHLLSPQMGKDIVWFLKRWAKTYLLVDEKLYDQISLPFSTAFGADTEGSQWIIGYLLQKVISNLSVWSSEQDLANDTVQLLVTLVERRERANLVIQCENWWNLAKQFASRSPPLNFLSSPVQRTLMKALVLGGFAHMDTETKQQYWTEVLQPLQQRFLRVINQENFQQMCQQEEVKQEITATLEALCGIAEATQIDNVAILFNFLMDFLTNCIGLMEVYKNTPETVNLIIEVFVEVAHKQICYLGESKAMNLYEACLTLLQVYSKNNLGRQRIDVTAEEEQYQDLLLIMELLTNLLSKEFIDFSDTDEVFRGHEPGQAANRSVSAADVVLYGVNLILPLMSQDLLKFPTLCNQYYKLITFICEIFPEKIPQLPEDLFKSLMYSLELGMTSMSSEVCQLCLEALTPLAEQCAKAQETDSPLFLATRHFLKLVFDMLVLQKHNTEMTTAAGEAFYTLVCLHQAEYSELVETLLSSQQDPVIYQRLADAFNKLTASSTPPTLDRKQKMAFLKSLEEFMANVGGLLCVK
# UniProt Q9Y6R4: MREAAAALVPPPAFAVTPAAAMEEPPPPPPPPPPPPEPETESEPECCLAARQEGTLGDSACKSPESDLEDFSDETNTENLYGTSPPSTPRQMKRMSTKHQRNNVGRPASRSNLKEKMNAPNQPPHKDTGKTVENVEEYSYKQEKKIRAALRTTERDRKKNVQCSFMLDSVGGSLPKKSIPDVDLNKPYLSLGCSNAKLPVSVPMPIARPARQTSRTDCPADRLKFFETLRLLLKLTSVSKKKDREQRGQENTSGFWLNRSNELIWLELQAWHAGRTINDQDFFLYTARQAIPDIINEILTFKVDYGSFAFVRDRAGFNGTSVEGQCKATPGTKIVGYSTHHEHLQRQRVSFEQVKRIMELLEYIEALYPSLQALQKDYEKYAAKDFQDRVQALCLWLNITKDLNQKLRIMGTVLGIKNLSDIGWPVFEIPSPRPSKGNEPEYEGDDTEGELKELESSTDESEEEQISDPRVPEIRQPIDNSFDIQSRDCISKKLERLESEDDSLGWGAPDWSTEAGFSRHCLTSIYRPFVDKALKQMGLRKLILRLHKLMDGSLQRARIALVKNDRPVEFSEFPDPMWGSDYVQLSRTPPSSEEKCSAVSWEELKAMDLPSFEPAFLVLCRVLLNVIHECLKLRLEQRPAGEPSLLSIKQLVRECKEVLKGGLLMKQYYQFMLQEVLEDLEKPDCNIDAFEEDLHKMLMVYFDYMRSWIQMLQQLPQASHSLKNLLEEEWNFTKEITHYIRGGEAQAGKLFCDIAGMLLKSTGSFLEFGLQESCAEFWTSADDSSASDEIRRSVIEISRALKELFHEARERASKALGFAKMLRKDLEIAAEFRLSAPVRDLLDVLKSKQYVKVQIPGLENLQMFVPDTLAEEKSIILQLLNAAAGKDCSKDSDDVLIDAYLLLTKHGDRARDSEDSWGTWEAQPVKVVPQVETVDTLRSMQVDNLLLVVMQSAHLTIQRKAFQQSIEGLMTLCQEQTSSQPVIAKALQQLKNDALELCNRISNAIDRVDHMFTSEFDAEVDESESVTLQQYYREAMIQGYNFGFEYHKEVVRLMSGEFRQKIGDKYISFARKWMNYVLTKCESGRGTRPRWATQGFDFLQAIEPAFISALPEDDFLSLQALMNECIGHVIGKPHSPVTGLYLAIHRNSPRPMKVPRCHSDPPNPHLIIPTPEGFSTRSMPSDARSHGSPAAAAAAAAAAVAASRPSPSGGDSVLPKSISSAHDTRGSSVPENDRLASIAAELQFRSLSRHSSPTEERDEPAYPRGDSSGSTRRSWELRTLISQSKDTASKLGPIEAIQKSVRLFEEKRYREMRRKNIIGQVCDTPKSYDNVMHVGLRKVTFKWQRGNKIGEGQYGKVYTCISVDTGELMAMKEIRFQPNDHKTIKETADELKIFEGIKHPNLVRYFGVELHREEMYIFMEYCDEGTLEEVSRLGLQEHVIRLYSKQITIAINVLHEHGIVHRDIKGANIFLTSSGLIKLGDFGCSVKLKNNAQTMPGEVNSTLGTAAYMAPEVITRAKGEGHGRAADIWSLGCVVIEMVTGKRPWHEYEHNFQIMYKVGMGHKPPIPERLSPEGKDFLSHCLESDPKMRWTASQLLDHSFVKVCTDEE
# UniProt P27695, whole entry: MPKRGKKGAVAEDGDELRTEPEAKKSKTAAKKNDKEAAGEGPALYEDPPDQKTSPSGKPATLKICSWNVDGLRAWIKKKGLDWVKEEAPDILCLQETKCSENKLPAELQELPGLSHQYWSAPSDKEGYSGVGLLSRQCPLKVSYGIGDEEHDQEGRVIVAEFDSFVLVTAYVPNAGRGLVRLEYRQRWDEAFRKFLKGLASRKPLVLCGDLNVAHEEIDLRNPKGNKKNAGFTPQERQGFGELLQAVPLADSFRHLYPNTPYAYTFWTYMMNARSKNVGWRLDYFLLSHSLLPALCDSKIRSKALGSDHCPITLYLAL
# UniProt O75376, whole entry: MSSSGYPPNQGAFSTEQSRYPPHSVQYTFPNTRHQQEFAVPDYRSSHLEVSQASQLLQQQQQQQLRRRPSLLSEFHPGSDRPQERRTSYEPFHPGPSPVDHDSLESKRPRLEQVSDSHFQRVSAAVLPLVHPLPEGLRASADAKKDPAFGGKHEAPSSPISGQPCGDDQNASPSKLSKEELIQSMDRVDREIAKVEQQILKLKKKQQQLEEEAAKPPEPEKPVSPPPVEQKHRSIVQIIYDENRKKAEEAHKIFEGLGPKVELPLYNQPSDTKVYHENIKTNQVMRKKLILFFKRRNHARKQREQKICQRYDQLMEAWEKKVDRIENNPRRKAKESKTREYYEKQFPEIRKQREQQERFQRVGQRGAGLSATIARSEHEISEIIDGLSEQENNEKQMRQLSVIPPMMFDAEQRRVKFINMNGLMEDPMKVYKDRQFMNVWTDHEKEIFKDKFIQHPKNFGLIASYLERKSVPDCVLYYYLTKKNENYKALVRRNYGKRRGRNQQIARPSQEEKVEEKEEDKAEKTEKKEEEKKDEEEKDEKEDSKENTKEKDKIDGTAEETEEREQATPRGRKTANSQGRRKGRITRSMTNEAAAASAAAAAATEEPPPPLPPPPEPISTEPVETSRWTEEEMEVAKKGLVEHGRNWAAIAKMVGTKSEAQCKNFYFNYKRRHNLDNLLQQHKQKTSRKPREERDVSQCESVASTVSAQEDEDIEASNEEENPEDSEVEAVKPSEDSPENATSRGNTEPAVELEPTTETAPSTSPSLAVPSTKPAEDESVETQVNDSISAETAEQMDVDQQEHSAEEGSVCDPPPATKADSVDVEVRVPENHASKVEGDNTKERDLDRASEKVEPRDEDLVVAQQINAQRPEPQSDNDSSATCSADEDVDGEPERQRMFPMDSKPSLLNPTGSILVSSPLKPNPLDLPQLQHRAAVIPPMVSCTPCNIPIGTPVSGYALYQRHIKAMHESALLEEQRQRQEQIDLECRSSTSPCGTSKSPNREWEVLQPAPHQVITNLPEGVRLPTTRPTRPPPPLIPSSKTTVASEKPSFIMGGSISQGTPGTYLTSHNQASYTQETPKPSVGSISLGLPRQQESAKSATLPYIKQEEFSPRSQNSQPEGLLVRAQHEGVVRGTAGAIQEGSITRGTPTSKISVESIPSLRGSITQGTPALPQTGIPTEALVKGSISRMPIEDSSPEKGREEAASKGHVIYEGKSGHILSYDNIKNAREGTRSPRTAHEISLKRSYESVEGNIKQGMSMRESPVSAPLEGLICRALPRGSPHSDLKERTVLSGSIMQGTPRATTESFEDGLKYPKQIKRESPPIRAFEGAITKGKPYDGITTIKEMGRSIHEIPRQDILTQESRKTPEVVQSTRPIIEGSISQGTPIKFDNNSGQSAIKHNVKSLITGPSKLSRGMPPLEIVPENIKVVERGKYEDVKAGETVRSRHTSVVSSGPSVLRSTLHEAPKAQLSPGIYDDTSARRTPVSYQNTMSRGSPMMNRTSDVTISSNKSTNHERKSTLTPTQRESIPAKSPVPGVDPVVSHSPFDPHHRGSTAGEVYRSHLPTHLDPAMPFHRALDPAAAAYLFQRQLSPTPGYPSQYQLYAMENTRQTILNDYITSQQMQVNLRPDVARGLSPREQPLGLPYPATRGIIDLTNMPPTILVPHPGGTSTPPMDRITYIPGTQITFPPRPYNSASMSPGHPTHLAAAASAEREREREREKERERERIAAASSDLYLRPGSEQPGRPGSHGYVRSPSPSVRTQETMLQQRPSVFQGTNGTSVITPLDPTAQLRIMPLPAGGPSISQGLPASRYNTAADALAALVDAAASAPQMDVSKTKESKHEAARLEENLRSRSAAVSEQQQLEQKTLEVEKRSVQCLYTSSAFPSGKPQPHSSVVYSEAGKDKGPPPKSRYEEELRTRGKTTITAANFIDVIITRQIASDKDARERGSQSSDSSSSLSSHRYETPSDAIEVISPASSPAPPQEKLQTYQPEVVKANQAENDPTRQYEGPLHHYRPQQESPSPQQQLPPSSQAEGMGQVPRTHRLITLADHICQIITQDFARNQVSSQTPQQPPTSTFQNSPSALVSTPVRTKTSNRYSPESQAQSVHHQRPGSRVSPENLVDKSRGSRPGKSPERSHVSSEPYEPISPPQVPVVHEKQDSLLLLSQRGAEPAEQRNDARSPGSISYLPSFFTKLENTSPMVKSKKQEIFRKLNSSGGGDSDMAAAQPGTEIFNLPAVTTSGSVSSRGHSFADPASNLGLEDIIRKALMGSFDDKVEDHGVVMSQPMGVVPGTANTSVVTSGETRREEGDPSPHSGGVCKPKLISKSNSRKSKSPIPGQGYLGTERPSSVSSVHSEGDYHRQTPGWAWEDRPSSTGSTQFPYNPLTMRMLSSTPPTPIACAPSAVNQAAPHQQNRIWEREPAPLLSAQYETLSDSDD
# UniProt Q9NZD2: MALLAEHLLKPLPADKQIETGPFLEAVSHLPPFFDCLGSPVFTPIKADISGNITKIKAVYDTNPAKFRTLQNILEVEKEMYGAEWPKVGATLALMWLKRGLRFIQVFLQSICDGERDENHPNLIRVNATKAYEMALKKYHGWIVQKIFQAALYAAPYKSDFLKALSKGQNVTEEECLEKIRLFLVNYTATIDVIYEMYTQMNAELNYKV
# UniProt P15311, whole entry: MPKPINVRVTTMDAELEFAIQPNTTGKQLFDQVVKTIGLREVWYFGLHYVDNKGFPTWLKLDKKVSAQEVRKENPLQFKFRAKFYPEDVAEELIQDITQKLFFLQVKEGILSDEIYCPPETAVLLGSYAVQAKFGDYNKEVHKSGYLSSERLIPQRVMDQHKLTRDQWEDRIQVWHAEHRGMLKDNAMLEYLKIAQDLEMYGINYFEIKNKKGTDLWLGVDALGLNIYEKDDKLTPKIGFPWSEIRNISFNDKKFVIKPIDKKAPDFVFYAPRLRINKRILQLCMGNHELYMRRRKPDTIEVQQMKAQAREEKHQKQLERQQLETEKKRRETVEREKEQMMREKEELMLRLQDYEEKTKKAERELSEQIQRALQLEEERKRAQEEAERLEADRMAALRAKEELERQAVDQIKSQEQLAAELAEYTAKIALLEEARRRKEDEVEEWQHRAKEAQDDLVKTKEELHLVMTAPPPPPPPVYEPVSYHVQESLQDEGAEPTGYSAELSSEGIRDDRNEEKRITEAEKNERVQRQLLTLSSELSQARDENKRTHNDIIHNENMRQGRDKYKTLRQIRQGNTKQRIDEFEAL
# ± gives the standard deviation of the averaged measurements. This is a selection; strong and weak results do not stand in their true shares.
# Compound: Nc1ncnc2c1ncn2[C@@H]1O[C@H](COP(=O)(O)OP(=O)(O)OP(=O)(O)O)[C@@H](O)[C@H]1O [adenosine triphosphate]
# Assay: NP40-soluble protein abundance relative to vehicle (solubility fold change) (ratio); higher = more soluble protein in presence of ATP
# Outline: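 Eight concentrations, 0.1 to 10 mM, were tested on Jurkat crude lysate for 10 min at room temperature and then 3 min at 37 °C, in three independent experiments. The lysate was solubilised with 0.8% NP40 and benzonase, ultracentrifuged, and the supernatant TMT-labelled for LC-MS/MS. Each value is the fold change against the detergent-processed vehicle in its own replicate, from vsn-normalised intensities.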
target,measurement,setting,value
F5GZ97 and related entries (UniProt Q9Y3C0),NP40-soluble protein abundance,concentration: 1mM,0.927 ± 0.07
same,NP40-soluble protein abundance,concentration: 2mM,0.955 ± 0.012
same,NP40-soluble protein abundance,concentration: 4mM,0.924 ± 0.055
same,NP40-soluble protein abundance,concentration: 6mM,0.967 ± 0.037
same,NP40-soluble protein abundance,concentration: 8mM,0.886 ± 0.05
same,NP40-soluble protein abundance,concentration: 10mM,0.846 ± 0.066
F2Z2X4 and related entries (UniProt Q9C0E2),NP40-soluble protein abundance,concentration: 1mM,1.02 ± 0.092
same,NP40-soluble protein abundance,concentration: 2mM,1.01 ± 0.11
same,NP40-soluble protein abundance,concentration: 4mM,1.01 ± 0.053
same,NP40-soluble protein abundance,concentration: 6mM,0.935 ± 0.11
same,NP40-soluble protein abundance,concentration: 8mM,1.03 ± 0.081
same,NP40-soluble protein abundance,concentration: 10mM,0.997 ± 0.031
F5H538 and related entries (UniProt Q9Y6R4),NP40-soluble protein abundance,concentration: 1mM,1.04 ± 0.05
same,NP40-soluble protein abundance,concentration: 2mM,1.05 ± 0.13
same,NP40-soluble protein abundance,concentration: 4mM,1.09 ± 0.17
same,NP40-soluble protein abundance,concentration: 6mM,1.11 ± 0.21
same,NP40-soluble protein abundance,concentration: 8mM,1.11 ± 0.23
same,NP40-soluble protein abundance,concentration: 10mM,1.16 ± 0.31
F8W8C2 and related entries (UniProt Q9HBM0),NP40-soluble protein abundance,concentration: 1mM,0.989 ± 0.05
same,NP40-soluble protein abundance,concentration: 2mM,0.932 ± 0.11
same,NP40-soluble protein abundance,concentration: 4mM,0.925 ± 0.1
same,NP40-soluble protein abundance,concentration: 6mM,0.945 ± 0.098
same,NP40-soluble protein abundance,concentration: 8mM,0.92 ± 0.082
same,NP40-soluble protein abundance,concentration: 10mM,0.89 ± 0.06
F8VNV8 and related entries (UniProt P54284),NP40-soluble protein abundance,concentration: 1mM,1.1 ± 0.08
same,NP40-soluble protein abundance,concentration: 2mM,1.07 ± 0.028
same,NP40-soluble protein abundance,concentration: 4mM,1.17 ± 0.13
same,NP40-soluble protein abundance,concentration: 6mM,1.06 ± 0.028
same,NP40-soluble protein abundance,concentration: 8mM,1.24 ± 0.12
same,NP40-soluble protein abundance,concentration: 10mM,1.1 ± 0.032
F8VYC4 and related entries (UniProt P0DJD1+P0DJD0+F8VYC4),NP40-soluble protein abundance,concentration: 1mM,1.01 ± 0.11
same,NP40-soluble protein abundance,concentration: 2mM,0.984 ± 0.036
same,NP40-soluble protein abundance,concentration: 4mM,1.06 ± 0.077
same,NP40-soluble protein abundance,concentration: 6mM,1.05 ± 0.033
same,NP40-soluble protein abundance,concentration: 8mM,1 ± 0.051
same,NP40-soluble protein abundance,concentration: 10mM,1.06 ± 0.04
G3V3M6 and related entries (UniProt P27695),NP40-soluble protein abundance,concentration: 1mM,0.957 ± 0.016
same,NP40-soluble protein abundance,concentration: 2mM,0.953 ± 0.038
same,NP40-soluble protein abundance,concentration: 4mM,0.917 ± 0.063
same,NP40-soluble protein abundance,concentration: 6mM,0.959 ± 0.089
same,NP40-soluble protein abundance,concentration: 8mM,0.963 ± 0.058
same,NP40-soluble protein abundance,concentration: 10mM,0.96 ± 0.075
E7EM64 and related entries (UniProt Q7L5N1),NP40-soluble protein abundance,concentration: 1mM,1.06 ± 0.086
same,NP40-soluble protein abundance,concentration: 2mM,1.01 ± 0.033
same,NP40-soluble protein abundance,concentration: 4mM,0.998 ± 0.051
same,NP40-soluble protein abundance,concentration: 6mM,0.968 ± 0.074
same,NP40-soluble protein abundance,concentration: 8mM,1.02 ± 0.041
same,NP40-soluble protein abundance,concentration: 10mM,0.992 ± 0.052
E7EW50 and related entries (UniProt O75376),NP40-soluble protein abundance,concentration: 1mM,1.01 ± 0.037
same,NP40-soluble protein abundance,concentration: 2mM,1 ± 0.054
same,NP40-soluble protein abundance,concentration: 4mM,1 ± 0.042
same,NP40-soluble protein abundance,concentration: 6mM,1.06 ± 0.082
same,NP40-soluble protein abundance,concentration: 8mM,1.02 ± 0.041
same,NP40-soluble protein abundance,concentration: 10mM,1.06 ± 0.052
E9PK61 and related entries (UniProt O14681),NP40-soluble protein abundance,concentration: 1mM,1 ± 0.047
same,NP40-soluble protein abundance,concentration: 2mM,1.01 ± 0.065
same,NP40-soluble protein abundance,concentration: 4mM,1.04 ± 0.012
same,NP40-soluble protein abundance,concentration: 6mM,1.03 ± 0.027
same,NP40-soluble protein abundance,concentration: 8mM,1.05 ± 0.034
same,NP40-soluble protein abundance,concentration: 10mM,1.09 ± 0.026
F5H0U5 and related entries (UniProt Q9NZD2),NP40-soluble protein abundance,concentration: 1mM,0.918 ± 0.065
same,NP40-soluble protein abundance,concentration: 2mM,0.907 ± 0.033
same,NP40-soluble protein abundance,concentration: 4mM,0.926 ± 0.076
same,NP40-soluble protein abundance,concentration: 6mM,0.889 ± 0.046
same,NP40-soluble protein abundance,concentration: 8mM,0.917 ± 0.06
same,NP40-soluble protein abundance,concentration: 10mM,0.793 ± 0.13
F8VXC8 and related entries (UniProt Q8TAQ2),NP40-soluble protein abundance,concentration: 1mM,1.06 ± 0.064
same,NP40-soluble protein abundance,concentration: 2mM,1.06 ± 0.05
same,NP40-soluble protein abundance,concentration: 4mM,1.06 ± 0.076
same,NP40-soluble protein abundance,concentration: 6mM,1.14 ± 0.15
same,NP40-soluble protein abundance,concentration: 8mM,1.12 ± 0.079
same,NP40-soluble protein abundance,concentration: 10mM,1.11 ± 0.048
E9PEJ6 and related entries (UniProt P98196),NP40-soluble protein abundance,concentration: 1mM,1.01 ± 0.029
same,NP40-soluble protein abundance,concentration: 2mM,1.012 ± 0.0072
same,NP40-soluble protein abundance,concentration: 4mM,1.04 ± 0.016
same,NP40-soluble protein abundance,concentration: 6mM,0.959 ± 0.015
same,NP40-soluble protein abundance,concentration: 8mM,0.985 ± 0.014
same,NP40-soluble protein abundance,concentration: 10mM,0.972 ± 0.047
G3V4K3 and related entries (UniProt Q9H9C1),NP40-soluble protein abundance,concentration: 1mM,0.982 ± 0.099
same,NP40-soluble protein abundance,concentration: 2mM,0.95 ± 0.072
same,NP40-soluble protein abundance,concentration: 4mM,0.949 ± 0.068
same,NP40-soluble protein abundance,concentration: 6mM,0.95 ± 0.084
same,NP40-soluble protein abundance,concentration: 8mM,0.971 ± 0.057
same,NP40-soluble protein abundance,concentration: 10mM,0.942 ± 0.051
E9PIV2 and related entries (UniProt P24001),NP40-soluble protein abundance,concentration: 1mM,0.966 ± 0.079
same,NP40-soluble protein abundance,concentration: 2mM,0.98 ± 0.12
same,NP40-soluble protein abundance,concentration: 4mM,0.922 ± 0.097
same,NP40-soluble protein abundance,concentration: 6mM,0.903 ± 0.022
same,NP40-soluble protein abundance,concentration: 8mM,0.813 ± 0.055
same,NP40-soluble protein abundance,concentration: 10mM,0.798 ± 0.18
E7EQR4 and related entries (UniProt P15311),NP40-soluble protein abundance,concentration: 1mM,0.959 ± 0.024
same,NP40-soluble protein abundance,concentration: 2mM,0.957 ± 0.026
same,NP40-soluble protein abundance,concentration: 4mM,0.925 ± 0.034
same,NP40-soluble protein abundance,concentration: 6mM,0.972 ± 0.047
same,NP40-soluble protein abundance,concentration: 8mM,0.953 ± 0.053
same,NP40-soluble protein abundance,concentration: 10mM,0.93 ± 0.04

# Quoted at random: 2 entries already listed, in no set order.
target,measurement,setting,value
G3V4K3 and related entries (UniProt Q9H9C1),NP40-soluble protein abundance,concentration: 8mM,0.971 ± 0.057
F5GZ97 and related entries (UniProt Q9Y3C0),NP40-soluble protein abundance,concentration: 6mM,0.967 ± 0.037

# An excerpt of these results, tab-delimited.
target	measurement	setting	value
F5H538 and related entries (UniProt Q9Y6R4)	NP40-soluble protein abundance	concentration: 6mM	1.11 ± 0.21
E7EM64 and related entries (UniProt Q7L5N1)	NP40-soluble protein abundance	concentration: 6mM	0.968 ± 0.074
E9PEJ6 and related entries (UniProt P98196)	NP40-soluble protein abundance	concentration: 8mM	0.985 ± 0.014
